Experimental data published in patent publication US20110158938A1.
No constants are given. Whether binding was seen depends on the method and setting. Some entries that bind do so weakly or less than the wild type.

By UniProt entry, the sequences of proteins in these tests, tags left out. Where a name states a change or a piece, a line headed by the entry shows the natural chain unless it says otherwise.
UniProt Q13261: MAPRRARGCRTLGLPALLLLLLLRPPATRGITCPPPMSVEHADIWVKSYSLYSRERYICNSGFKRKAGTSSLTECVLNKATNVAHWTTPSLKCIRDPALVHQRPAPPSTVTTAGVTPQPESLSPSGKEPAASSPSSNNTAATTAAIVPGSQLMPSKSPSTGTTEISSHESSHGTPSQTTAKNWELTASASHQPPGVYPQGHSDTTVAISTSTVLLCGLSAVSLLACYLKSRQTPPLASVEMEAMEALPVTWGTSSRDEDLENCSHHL

Tests used:
[1] = target: T1, peptide 1 (44…52) (human); assay: pepscan
T1 sequence (peptide): LLELQVISL

[2] = target: T2, peptide 2 (64ENLII68) (human); assay: pepscan
T2 sequence (peptide): ENLII

[3] = target: T1, peptide 1 (44…52) (human); assay: pepscan on 12-mer and 30-mer IL-15 peptides, 330 nM fusion protein
[4] = target: T2, peptide 2 (64ENLII68) (human); assay: as above

- binding [1]: binds
- binding [2]: binds
- binding [3]: binds
- binding [4]: binds
Substance: soluble IL-15Rα-IL-2 fusion protein (from UniProt Q13261 31-205; P60568 21-153)
